Experimental data: PubChem BioAssay AID1259308 (NCATS, 2017)
Screen: 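Candidate targets for better recombinant protein yield in mammalian cells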 (primary screen). Cell system: human HEK293 embryonic kidney cells stably expressing firefly luciferase (HEK-CMV-Luc2-Hygro). Reagents: single siRNA against human genes, 0.8 pmol siRNA per well. Time to read-out: 72 h. Measurement: 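Reporter luminescence and viable-cell signal on separate replicate plates, given as percent of non-targeting control and median/MAD z-scores, plus per-cell luciferase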. Direction: total luciferase, z-score and total luciferase, % of control: higher = more reporter protein produced. Rule for the call: 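An siRNA counts as active if its total luciferase robust z-score exceeds 3; genes with two or more such siRNAs out of three were retested with fresh siRNAs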. Meaning of the calls: active = raised luciferase; inactive = no rise.
Here is an unselected part of about 59,000 reagents. About 1,510 of all reagents (2.6%) count as active. 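Calls use total luciferase alone and ignore viability, so some active siRNAs may act by altering cell number.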 Entries without a mark were called inactive. Reagents against one gene are numbered here. Further read-outs or replicates are left out here. No sequences are given here.

GPR25 (G protein-coupled receptor 25) #1: total luciferase, z-score = -1.07; total luciferase, % of control = 60.5
GPR25 (G protein-coupled receptor 25) #2: total luciferase, z-score = 1.52; total luciferase, % of control = 112
GPR25 (G protein-coupled receptor 25) #3: total luciferase, z-score = 0.0623; total luciferase, % of control = 83.1
TBL1XR1 (TBL1X/Y related 1) #1: total luciferase, z-score = 0.621; total luciferase, % of control = 94.2
TBL1XR1 (TBL1X/Y related 1) #2: total luciferase, z-score = -0.61; total luciferase, % of control = 69.8
TBL1XR1 (TBL1X/Y related 1) #3: total luciferase, z-score = -0.702; total luciferase, % of control = 67.9
KLHL40 (kelch like family member 40) #1: total luciferase, z-score = -0.7; total luciferase, % of control = 68
KLHL40 (kelch like family member 40) #2: total luciferase, z-score = 3.12 (active); total luciferase, % of control = 144
KLHL40 (kelch like family member 40) #3: total luciferase, z-score = 1.14; total luciferase, % of control = 105
USP38 (ubiquitin specific peptidase 38) #1: total luciferase, z-score = 1.06; total luciferase, % of control = 103
USP38 (ubiquitin specific peptidase 38) #2: total luciferase, z-score = 1.18; total luciferase, % of control = 105
USP38 (ubiquitin specific peptidase 38) #3: total luciferase, z-score = 1.27; total luciferase, % of control = 107

Entries listed so far whose target name begins with K or k (3):
KLHL40 (kelch like family member 40) #1: total luciferase, z-score = -0.7; total luciferase, % of control = 68
KLHL40 (kelch like family member 40) #2: total luciferase, z-score = 3.12 (active); total luciferase, % of control = 144
KLHL40 (kelch like family member 40) #3: total luciferase, z-score = 1.14; total luciferase, % of control = 105
